Measurements from PMC8148049 (Chemical Science, 2019).
Some peptides are written in HELM: one residue between dots, names in brackets for other building blocks, links after the first $.

Key:
[1] = general procedure: peptide synthesis; 2-chlorotrityl polystyrene resin (0.65 mmol/g); DIC and Oxyma; settings: whole synthesis, scale 56.6 μmol
[2] = general procedure: peptide synthesis; 2-chlorotrityl chloride polystyrene resin (Merck Novabiochem); DIC and Oxyma; settings: HPLC-MS

| Substance | isolated mass [1] | final LC-MS purity ([2]; whole synthesis) | final LC-MS purity ([2]; late stage modification step) |
| --- | --- | --- | --- |
| PEPTIDE1{A.Y.Q.[dK].F.L.W.[Nle].E.A}$PEPTIDE1,PEPTIDE1,1:R1-10:R2$$$V2.0 | 14.1 mg | 98% | – |
| PEPTIDE1{A.Y.Q.[dK].F.L.[Trp(redBODIPY)].[Nle].E.A}$PEPTIDE1,PEPTIDE1,1:R1-10:R2$$$V2.0 | – | – | 99% |
